Source: PubChem BioAssay AID687032 (Broad Institute, 2013).

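IOSE-T80 ovarian epithelial cells, a line not reliant on PAX8, given compound for 96 h, with viability tracked through ATP-driven luciferase light.
Percent change in signal scaled so neutral controls are 0 and the cytotoxic control is -100; more negative values mean greater loss of viability.
Per repeat run, active means fitted AC50 at or below twice the top valid dose; inactive means a flat curve between -30% and 30%, an opposite effect, or AC50 above that limit; inconclusive means a flat -30% to -70% curve, a poor fit, or runs that disagree.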

Values are in %.
Every entry below has the call inconclusive.
Only part of the assay is shown, chiefly results filed as inconclusive.

compound,condition,activity change (%)
O=C(CCl)N(c1ccccc1)C1CCCCC1,at 35 µM (top of the series),3.358
O=C(COc1ccccc1-c1ccccc1)N/N=C/c1ccc2ccccc2c1,at 35 µM (top of the series),4.08
CN(C(=O)COC(=O)C1CCN(S(=O)(=O)c2c(Cl)cccc2Cl)CC1)C1CCS(=O)(=O)C1 (centres unmarked),at 35 µM (top of the series),4.326
C=CC[C@@H](CC(=O)N[C@H](CO)Cc1ccccc1)C(=O)N[C@H](COC(=O)[C@@H](CC=C)Cc1ccc(F)cc1)Cc1c[nH]c2ccccc12,at 35 µM (top of the series),10.24
CN(C[C@H]1N[C@@H](CO)[C@@H]1c1ccc(C2=CCCC2)cc1)C(=O)c1cccc(F)c1,at 35 µM (top of the series),7.486
COc1ccc(NC(=O)N2CCCCN3[C@@H](CO)[C@@H](c4ccc(C#Cc5ccccc5)cc4)[C@@H]3C2)cc1,at 30 µM (top of the series),7.613
OCC1CCCN(C(=S)Nc2ccc(OC(F)F)cc2)C1 (centres unmarked),at 35 µM (top of the series),7.861
COc1cccc(S(=O)(=O)N2C[C@@H]3N[C@H](C2)C3c2ccc(/C=C/c3ccccc3)cc2)c1 (some centres unmarked),at 35 µM (top of the series),1.059
COc1cc(C2C(C#N)=C(N)Oc3cc4c(cc32)OCO4)cc(OC)c1OC (centres unmarked),at 35 µM (top of the series),21.69
COC(=O)[C@H]1[C@@H](O)[C@@]2(O)c3c(OC)cc(OC)cc3O[C@@]2(c2ccc(OC)cc2)[C@@H]1c1ccc(F)cc1,at 35 µM (top of the series),13.13
O=C(/C=C/c1ccccc1)Nc1cccc(C(=O)O)c1,at 35 µM (top of the series),9.451
Cc1noc(C)c1S(=O)(=O)N(C)C[C@@H]1OCCCC[C@H](C)Oc2ccc(NS(=O)(=O)c3ccc(Cl)cc3)cc2C(=O)N([C@H](C)CO)C[C@@H]1C,at 35 µM (top of the series),27.99
C/C(=N\NC(=O)c1n[nH]c2c1CCC2)c1cccs1,at 35 µM (top of the series),-0.472
Cc1c(Nc2cc(Cl)c3nonc3c2[N+](=O)[O-])c(=O)n(-c2ccccc2)n1C,at 35 µM (top of the series),-0.473
CO[C@@H]1CN(C)C(=O)c2cc(NC(=O)c3ccc(-c4ccccc4)cc3)ccc2OC[C@H](C)NC[C@H]1C,at 30 µM (top of the series),7.843
Cc1ccc(S(=O)(=O)N(C)C[C@H]2Oc3cc(C#Cc4ccncc4)ccc3S(=O)(=O)N([C@@H](C)CO)C[C@@H]2C)cc1,at 35 µM (top of the series),21.19
O=[N+]([O-])c1cc(-c2nnc(-c3ccccc3)o2)ccc1Oc1ccc(Cl)cc1,at 35 µM (top of the series),5.849
C=C1C(=O)O[C@@H]2[C@H]1[C@@H](OC(=O)/C(C)=C/C)C/C(C)=C\C(=O)/C=C(\C)[C@@H]2O,at 35 µM (top of the series),7.354
CCN1CCN(Cc2ccc(NC(=O)c3ccc(C)c(NC(=O)C(=O)c4c[nH]c5ccccc45)c3)cc2C(F)(F)F)CC1,at 35 µM (top of the series),1.344
O=C(NC1CCCCCC1)C1c2ccccc2C(=O)N1Cc1cccs1 (centres unmarked),at 35 µM (top of the series),-0.174
CC(=O)/C=C/n1c(=S)oc2ccccc21,at 35 µM (top of the series),4.298
CCN(CC)S(=O)(=O)c1cc(OC)ccc1N=Nc1ccc(O)c2ncccc12,at 35 µM (top of the series),20.91
Cn1nnnc1Sc1ncnc2scc(-c3ccccc3Cl)c12,at 35 µM (top of the series),11.82
CN(C)c1ncnc2c1nnn2C1OC(CO)C(O)C1O (centres unmarked),at 35 µM (top of the series),9.86
Oc1cccc2cc(Nc3ccccc3)cnc12,at 35 µM (top of the series),13.77
C[C@@H]1CN([C@@H](C)CO)C(=O)c2cc(NC(=O)CCC(F)(F)F)ccc2O[C@@H](C)CCCCO[C@H]1CN(C)Cc1ccc(C(F)(F)F)cc1,at 35 µM (top of the series),-1.102
CN(/N=C/c1ccc(O)cc1O)c1nc(-c2ccccc2)cc(-c2ccccc2)n1,at 35 µM (top of the series),-0.439
O=c1[nH]c(-c2ccccn2)nc2sc(-c3ccccc3)cc12,at 35 µM (top of the series),-0.32
COc1ccc(-c2ccc3c(c2)[C@@H]2[C@@H](CCN2C(=O)NC2CCCCC2)[C@H](CO)N3C)cc1,at 30 µM (top of the series),10.14
O=C(C1CC1)N1C[C@@H]2N[C@H](C1)C2c1ccc(-c2ccccc2F)cc1 (some centres unmarked),at 35 µM (top of the series),8.305
C=CCC[C@@H](Cc1ccc(F)cc1)C(=O)OC[C@@H](Cc1c[nH]c2ccccc12)NC(=O)[C@H](CC=C)CC(=O)N(CCO)Cc1ccccc1,at 35 µM (top of the series),-4.248
O=C(CCl)N=c1sccn1Cc1ccc(Cl)cc1Cl,at 35 µM (top of the series),13.88
Cc1ccc2nc(-c3ccc(NC(=S)NC4CC(C)(C)NC(C)(C)C4)cc3)sc2c1,at 35 µM (top of the series),9.354
O=[N+]([O-])c1ccc(N/N=C/c2sc(N3CCOCC3)nc2-c2ccccc2)c(S(=O)(=O)Nc2ccc(Cl)cc2)c1,at 35 µM (top of the series),9.642
CCOc1ccc(C(=O)c2cc([N+](=O)[O-])ccc2N2CCOCC2)cc1,at 35 µM (top of the series),1.531
CC(C)=CCNc1ncnc2c1c(C#N)cn2C1OC(CO)C(O)C1O (centres unmarked),at 35 µM (top of the series),9.848
COc1cc2c(c(OC)c1OC)-c1ccc(SC)c(=O)cc1C(NC(=O)C(F)(F)F)CC2 (centres unmarked),at 35 µM (top of the series),5.767
COc1ccc(C(=O)CCS(=O)(=O)c2ccc(C)cc2)cc1OC,at 35 µM (top of the series),4.34
CCOc1ccc2ccccc2c1/C=N\NC(=O)OC,at 35 µM (top of the series),20.58
COc1cccc(-c2cnc3c(NC=O)cc(-c4ccc(OC)cc4OC)cn23)c1,at 35 µM (top of the series),11.88
CCOC(=O)C1=CN(Cc2cccc(-c3cccnc3)c2)S(=O)(=O)N(C)C1C (centres unmarked),at 35 µM (top of the series),2.552
CCOc1ccc2c(c1)C(C)=CC(C)(C)N2S(=O)(=O)c1ccc(NC(C)=O)cc1,at 35 µM (top of the series),18.05
O=C(Cn1cc(C(F)(F)F)ccc1=O)Nc1ccc2c(c1)OCO2,at 35 µM (top of the series),-15.41
CNC(=O)c1cc(Oc2ccc(NC(=O)Nc3ccc(Cl)c(C(F)(F)F)c3)cc2)ccn1,at 35 µM (top of the series),12.39

Once more, the final 6:

compound,condition,activity change (%)
CCOc1ccc2ccccc2c1/C=N\NC(=O)OC,at 35 µM (top of the series),20.58
COc1cccc(-c2cnc3c(NC=O)cc(-c4ccc(OC)cc4OC)cn23)c1,at 35 µM (top of the series),11.88
CCOC(=O)C1=CN(Cc2cccc(-c3cccnc3)c2)S(=O)(=O)N(C)C1C (centres unmarked),at 35 µM (top of the series),2.552
CCOc1ccc2c(c1)C(C)=CC(C)(C)N2S(=O)(=O)c1ccc(NC(C)=O)cc1,at 35 µM (top of the series),18.05
O=C(Cn1cc(C(F)(F)F)ccc1=O)Nc1ccc2c(c1)OCO2,at 35 µM (top of the series),-15.41
CNC(=O)c1cc(Oc2ccc(NC(=O)Nc3ccc(Cl)c(C(F)(F)F)c3)cc2)ccn1,at 35 µM (top of the series),12.39